This passage reports T/C and survivor count results from PubChem BioAssay AID248 (DTP/NCI, 2004).

This assay relates to L1210 leukemia ip in BDF1 mice, survival T/C. Description: NCI In Vivo Anticancer Drug Screen. Data for tumor model L1210 Leukemia (intraperitoneal) in B6D2F1 (BDF1) mice. The following applies: T/C endpoint: mean survival time, higher T/C = longer survival.

SMILES strings stand for the structures. The list is a part of this screen's results and no random one: it is rich in T/C values a quarter to a half above the control, in often repeated tests (any T/C) and in doses without a T/C. Other doses and runs of a compound stand elsewhere. T/C gives the treated animals as a percentage of the vehicle group. Some entries give survivors of the animals treated and no T/C: the source holds a T/C of zero for them, seemingly a mark for toxic or unscored doses. Some survivor counts are full or nearly so, which does not show that the dose was tolerated: survival well below the control is almost never listed, so the zero probably covers shortened survival too. Survivors were counted at the toxicity check, usually on the fifth day, unless a day is given; later deaths do not show. Schedule codes are those of the source, taken here to give the interval after Q, in days (D) or hours (H), and the number of doses after X. Some schedule codes hold Z or #, which are not explained here. For survival time, the PubChem record calls one and a half times the control and up active, and a quarter to a half above the control has no call in these data; cut-offs in other NCI protocols can differ. Some entries hold several experiments; their values stand side by side, smallest first. Some T/C values carry the count of animals alive at the toxicity check (mostly the fifth day); where none is given, no animal had died by that day.

With `C=CC(CN1CC1)OC(C)=O` (configuration not stated), the T/C by setting is: (dose: 1.0 mg/kg/injection, schedule: Q01DX010 (oral), vehicle: saline) 125 % of control; (dose: 1.0 mg/kg/injection, schedule: Q03DX Z (ip), vehicle: saline) 130 % of control; (dose: 1.9 mg/kg/injection, schedule: Q01DX Z (oral), vehicle: olive oil, sesame oil, peanut oil) 139 % of control; (dose: 2.0 mg/kg/injection, schedule: Q01DX010 (oral), vehicle: saline) 146 % of control; (dose: 2.0 mg/kg/injection, schedule: Q03DX Z (ip), vehicle: saline) 146 % of control; (dose: 2.0 mg/kg/injection, schedule: Q#A X Z (ip), vehicle: other) 134 % of control [5 of 6 alive]. Moreover, the T/C is 139 % of control (dose: 3.0 mg/kg/injection, schedule: Q#A X Z (ip), vehicle: other); 126 % of control (dose: 3.6 mg/kg/injection, schedule: Q01DX Z (ip), vehicle: carboxymethylcellulose (CMC)); 145 % of control (dose: 3.75 mg/kg/injection, schedule: Q01DX009 (ip), vehicle: saline); 148 % of control (dose: 3.8 mg/kg/injection, schedule: Q01DX Z (oral), vehicle: olive oil, sesame oil, peanut oil); 129 % of control (dose: 4.0 mg/kg/injection, schedule: Q01DX Z (ip), vehicle: carboxymethylcellulose (CMC)); 137 % of control (dose: 4.0 mg/kg/injection, schedule: Q01DX Z (ip), vehicle: other). In addition, the T/C is 126 % of control [5 of 6 alive] (dose: 4.0 mg/kg/injection, schedule: Q03DX Z (ip), vehicle: saline); 130 and 139 % of control (dose: 4.95 mg/kg/injection, schedule: Q01DX Z (ip), vehicle: carboxymethylcellulose (CMC)); 141 % of control (dose: 5.0 mg/kg/injection, schedule: Q01DX Z (oral), vehicle: saline); 142 % of control (dose: 6.0 mg/kg/injection, schedule: Q01DX Z (ip), vehicle: other); 130 % of control (dose: 6.0 mg/kg/injection, schedule: Q01DX Z (sc), vehicle: other); 145 % of control (dose: 6.6 mg/kg/injection, schedule: Q01DX Z (ip), vehicle: carboxymethylcellulose (CMC)). Moreover, the T/C was 147 % of control (dose: 7.5 mg/kg/injection, schedule: Q01DX Z (ip), vehicle: olive oil, sesame oil, peanut oil); 144 % of control (dose: 8.0 mg/kg/injection, schedule: Q02DX004 (im), vehicle: saline); 128, 133, 146 % of control [9 of 10 alive] (dose: 9.9 mg/kg/injection, schedule: Q01DX Z (ip), vehicle: carboxymethylcellulose (CMC)); 135 % of control (dose: 15.0 mg/kg/injection, schedule: Q01DX Z (ip), vehicle: olive oil, sesame oil, peanut oil); 130 % of control (dose: 15.0 mg/kg/injection, schedule: Q01DX Z (ip), vehicle: saline); 136 % of control (dose: 15.0 mg/kg/injection, schedule: Q01DX Z (oral), vehicle: olive oil, sesame oil, peanut oil). The T/C was 145 % of control (dose: 15.0 mg/kg/injection, schedule: Q01DX Z (oral), vehicle: saline); 134 % of control (dose: 16.0 mg/kg/injection, schedule: Q02DX004 (im), vehicle: saline); 126 and 148 % of control (dose: 16.0 mg/kg/injection, schedule: Q07DX Z (ip), vehicle: saline); 145 % of control (dose: 16.75 mg/kg/injection, schedule: Q01DX001 (ip), vehicle: saline); 127 and 128 % of control (dose: 25.0 mg/kg/injection, schedule: Q01DX001 (ip), vehicle: saline); 130 % of control (dose: 120.0 mg/kg/injection, schedule: Q01DX Z (oral), vehicle: saline). Moreover, the survivor count is, setting by setting: (dose: 1.9 mg/kg/injection, schedule: Q01DX Z (ip), vehicle: olive oil, sesame oil, peanut oil) 6 of 6; (dose: 4.0 mg/kg/injection, schedule: Q01DX010 (oral), vehicle: saline) 6 of 6; (dose: 7.6 mg/kg/injection, schedule: Q01DX Z (ip), vehicle: olive oil, sesame oil, peanut oil) 6 of 6; (dose: 8.0 mg/kg/injection, schedule: Q01DX006 (iv), vehicle: saline) 5 of 6; (dose: 8.0 mg/kg/injection, schedule: Q01DX010 (oral), vehicle: saline) 6 of 6; (dose: 8.0 mg/kg/injection, schedule: Q03DX Z (ip), vehicle: saline) 5 of 6. Moreover, the survivor count reads like this: (dose: 9.0 mg/kg/injection, schedule: Q01DX Z (sc), vehicle: other) 6 of 6; (dose: 15.1 mg/kg/injection, schedule: Q01DX Z (ip), vehicle: olive oil, sesame oil, peanut oil) 6 of 6; (dose: 16.0 mg/kg/injection, schedule: Q01DX006 (iv), vehicle: saline) 6 of 6; (dose: 16.0 mg/kg/injection, schedule: Q01DX010 (oral), vehicle: saline) 6 of 6; (dose: 24.75 mg/kg/injection, schedule: Q01DX Z (ip), vehicle: carboxymethylcellulose (CMC)) 9 of 10; (dose: 30.0 mg/kg/injection, schedule: Q01DX009 (ip), vehicle: saline) 6 of 6. Moreover, the survivor count reads like this: (dose: 30.0 mg/kg/injection, schedule: Q01DX Z (ip), vehicle: carboxymethylcellulose (CMC)) 3 of 6; (dose: 30.0 mg/kg/injection, schedule: Q01DX Z (ip), vehicle: saline) 5 of 6; (dose: 30.0 mg/kg/injection, schedule: Q01DX Z (oral), vehicle: olive oil, sesame oil, peanut oil) 6 of 6; (dose: 30.1 mg/kg/injection, schedule: Q01DX Z (ip), vehicle: olive oil, sesame oil, peanut oil) 0 of 6; (dose: 30.1 mg/kg/injection, schedule: Q01DX Z (oral), vehicle: olive oil, sesame oil, peanut oil) 1 of 6; (dose: 30.1 mg/kg/injection, schedule: Q01DX Z (oral), vehicle: other) 6 of 6. Further, the survivor count reads like this: (dose: 32.0 mg/kg/injection, schedule: Q01DX010 (oral), vehicle: saline) 0 of 6; (dose: 42.0 mg/kg/injection, schedule: Q07DX Z (ip), vehicle: other) 5 of 6; (dose: 63.0 mg/kg/injection, schedule: Q07DX Z (ip), vehicle: other) 5 of 6; (dose: 64.0 mg/kg/injection, schedule: Q02DX004 (im), vehicle: saline) 4 of 6; (dose: 64.0 mg/kg/injection, schedule: Q07DX Z (ip), vehicle: saline) 2 of 6; (dose: 100.0 mg/kg/injection, schedule: Q01DX001 (ip), vehicle: saline) 4 of 6. The survivor count (dose: 120.0 mg/kg/injection, schedule: Q01DX Z (ip), vehicle: saline) is 6 of 6 and the survivor count (dose: 200.0 mg/kg/injection, schedule: Q01DX001 (ip), vehicle: saline) was 0 of 6.
With `O=C(O)c1ccccc1Br.[Ni]`, the survivor count (dose: 12.5 mg/kg/injection, schedule: Q01DX009 (ip), vehicle: Klucel (hydroxypropylcellulose) (HPC)) is 6 of 6; the survivor count (dose: 50.0 mg/kg/injection, schedule: Q01DX009 (ip), vehicle: Klucel (hydroxypropylcellulose) (HPC)) is reported as 6 of 6; the survivor count (dose: 100.0 mg/kg/injection, schedule: Q01DX001 (ip), vehicle: Klucel (hydroxypropylcellulose) (HPC)) is listed as 2 of 6; the survivor count (dose: 200.0 mg/kg/injection, schedule: Q01DX001 (ip), vehicle: Klucel (hydroxypropylcellulose) (HPC)) was 0 of 6; the survivor count (dose: 400.0 mg/kg/injection, schedule: Q01DX001 (ip), vehicle: Klucel (hydroxypropylcellulose) (HPC)) was 0 of 6.
With `CCC(C)NC(=O)Nc1cccc(Cl)c1C` (configuration not stated), where the note is “dose: 200.0 mg/kg/injection, schedule: Q01DX009 (ip), vehicle: saline with Tween-80”, the survivor count was 6 of 6.
